Assay [1] deals with T1, Zinc and ring finger 1 (E3 ubiquitin-protein ligase ZNRF1) (mouse (endogenous in primary mouse aortic ECs and mouse aortae)) (UniProt Q91V17).
T1 sequence: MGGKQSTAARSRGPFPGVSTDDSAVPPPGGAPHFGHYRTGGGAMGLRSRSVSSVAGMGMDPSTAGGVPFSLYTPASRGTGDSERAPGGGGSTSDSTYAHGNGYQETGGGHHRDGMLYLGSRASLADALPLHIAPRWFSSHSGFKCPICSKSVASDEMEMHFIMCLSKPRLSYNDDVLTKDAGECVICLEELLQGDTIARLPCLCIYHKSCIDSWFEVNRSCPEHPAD
The assay is described as follows: co-IP; lysates of primary mouse aortic endothelial cells (NG or HG; NCEH1 shRNA or overexpression, ZNRF1 overexpression or knock-down); lysis buffer with 20 mM Tris pH 7.5, 150 mM NaCl, 1% Triton X-100; immunoprecipitation 2 h at 4 °C, Protein G PLUS-Agarose, immunoblot.

The target of assay [2] is T2, HA-ZNRF1 (full-length ZNRF1 in pcDNA3.1-HA; printed as pcDNA3.1-HA-NKAα1) (UniProt Q91V17).
T2 sequence: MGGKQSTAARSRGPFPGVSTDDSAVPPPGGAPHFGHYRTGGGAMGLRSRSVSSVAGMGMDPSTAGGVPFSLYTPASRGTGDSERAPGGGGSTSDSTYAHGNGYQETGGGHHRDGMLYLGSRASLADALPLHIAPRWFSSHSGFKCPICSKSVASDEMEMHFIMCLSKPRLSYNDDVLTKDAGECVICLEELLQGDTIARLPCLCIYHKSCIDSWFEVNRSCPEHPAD
The assay is described as follows: co-IP; HEK293 cells transfected with tagged NCEH1 and ZNRF1 plasmids (1 µg, 6 h, then 48 h); interactions examined by immunoblotting.

The target of assay [3] is T3, caveolin-1 (mouse (endogenous in mouse aortae and primary mouse aortic ECs)) (UniProt P49817).
T3 sequence: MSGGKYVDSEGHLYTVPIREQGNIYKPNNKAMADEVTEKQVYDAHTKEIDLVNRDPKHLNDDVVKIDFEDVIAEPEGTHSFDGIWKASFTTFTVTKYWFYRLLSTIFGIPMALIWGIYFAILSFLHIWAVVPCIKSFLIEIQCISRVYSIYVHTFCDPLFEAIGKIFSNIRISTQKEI
The assay is described as follows: co-IP; lysates of primary mouse aortic endothelial cells (NG or HG; NCEH1 shRNA or overexpression, ZNRF1 overexpression or knock-down); lysis buffer with 20 mM Tris pH 7.5, 150 mM NaCl, 1% Triton X-100; immunoprecipitation 2 h at 4 °C, Protein G PLUS-Agarose, immunoblot.

Assay [4] deals with T3, caveolin-1 (mouse (endogenous in mouse aortae and primary mouse aortic ECs)). The assay is described as follows: co-IP; lysates of mouse aortae (NG or HG ex vivo, normal diet or HFD; endothelial NCEH1 shRNA or overexpression by AAV); lysis buffer with 20 mM Tris pH 7.5, 150 mM NaCl, 1% Triton X-100; immunoprecipitation 2 h at 4 °C, Protein G PLUS-Agarose, immunoblot.
The target in assay [5] is T1, Zinc and ring finger 1 (E3 ubiquitin-protein ligase ZNRF1) (mouse (endogenous in primary mouse aortic ECs and mouse aortae)). The description is as above.

These are yes or no findings as the source states them, for the method shown. In cells and extracts the contact can be indirect. Some binding calls cover weakened binding; strength is not graded here. For part of these data: Tags and fused reporters may be left off the sequences shown.

B1: neutral cholesterol ester hydrolase 1 (enzyme, UniProt Q8BLF1 1-408)
chain: MRSSCVLLAALLALAAYYVYIPLPSAVSDPWKLMLLDATFRGAQQVSNLIHSLGLNHHLIALNFIITSFGKQSARSSPKVKVTDTDFDGVEVRVFEGSPKPEEPLRRSVIYIHGGGWALASAKISYYDQLCTTMAEELNAVIVSIEYRLVPQVYFPEQIHDVIRATKYFLQPEVLDKYKVDPGRVGISGDSAGGNLAAALGQQFTYVASLKNKLKLQALVYPVLQALDFNTPSYQQSMNTPILPRHVMVRYWLDYFKGNYDFVEAMIVNNHTSLDVERAAALRARLDWTSLLPSSIKKNYKPIMQTTGNARIVQEIPQLLDAAASPLIAEQEVLEALPKTYILTCEHDVLRDDGIMYAKRLESAGVNVTLDHFEDGFHGCMIFTSWPTNFSVGIRTRNSYIKWLDQNL
Consider B1, for which the binding entry in assay [1] was “binds”.

B2: Flag-NCEH1 (pcDNA3.1-Flag-NCEH1) (enzyme, UniProt Q8BLF1 1-408)
chain: MRSSCVLLAALLALAAYYVYIPLPSAVSDPWKLMLLDATFRGAQQVSNLIHSLGLNHHLIALNFIITSFGKQSARSSPKVKVTDTDFDGVEVRVFEGSPKPEEPLRRSVIYIHGGGWALASAKISYYDQLCTTMAEELNAVIVSIEYRLVPQVYFPEQIHDVIRATKYFLQPEVLDKYKVDPGRVGISGDSAGGNLAAALGQQFTYVASLKNKLKLQALVYPVLQALDFNTPSYQQSMNTPILPRHVMVRYWLDYFKGNYDFVEAMIVNNHTSLDVERAAALRARLDWTSLLPSSIKKNYKPIMQTTGNARIVQEIPQLLDAAASPLIAEQEVLEALPKTYILTCEHDVLRDDGIMYAKRLESAGVNVTLDHFEDGFHGCMIFTSWPTNFSVGIRTRNSYIKWLDQNL
B2: the binding result in assay [2] is “binds”.

B3: endothelial nitric oxide synthase (enzyme, UniProt P70313 1-1202)
chain: MGNLKSVGQEPGPPCGLGLGLGLGLCGKQGPASPAPEPSQAPAPPSPTRPAPDHSPPLTRPPDGPRFPRVKNWEVGSITYDTLSAQAQQDGPCTSRRCLGSLVFPRKLQSRPTQGPSPTEQLLGQARDFINQYYNSIKRSGSQAHEQRLQEVEAEVAATGTYQLRESELVFGAKQAWRNAPRCVGRIQWGKLQVFDARDCRTAQEMFTYICNHIKYATNRGNLRSAITVFPQRCPGRGDFRIWNSQLIRYAGYRQQDGSVRGDPANVEITELCIQHGWTPGNGRFDVLPLLLQAPDEPPELFTLPPEMVLEVPLEHPTLEWFAALGLRWYALPAVSNMLLEIGGLEFPAAPFSGWYMSSEIGMRDLCDPHRYNILEDVAVCMDLDTRTTSSLWKDKAAVEINVAVLHSYQLAKVTIVDHHAATASFMKHLENEQKARGGCPADWAWIVPPISGSLTPVFHQEMVNYFLSPAFRYQPDPWKGSAAKGAGITRKKTFKEVANAVKISASLMGTVMAKRVKATILYGSETGRAQSYAQQLGRLFRKAFDPRVLCMDEYDVVSLEHEALVLVVTSTFGNGDPPENGESFAAALMEMSGPYNSSPRPEQHKSYKIRFNSVSCSDPLVSSWRRKRKESSNTDSAGALGTLRFCVFGLGSRAYPHFCAFARAVDTRLEELGGERLLQLGQGDELCGQEEAFRGWAQAAFQAACETFCVGEDAKAAARDIFSPKRSWKRQRYRLSTQAESLQLLPGLTHVHRRKMFQATILSVENLQSSKSTRATILVRLDTGGQEGLQYQPGDHIGVCPPNRPGLVEALLSRVEDPPPSTEPVAVEQLEKGSPGGPPPGWVRDPRLPPCTLRQALTYFLDITSPPSPRLLRLLSTLAEESSEQQELEALSQDPRRYEEWKWFSCPTLLEVLEQFPSVALPAPLILTQLPLLQPRYYSVSSAPSAHPGEIHLTIAVLAYRTQDGLGPLHYGVCSTWMSQLKAGDPVPCFIRGAPSFRLPPDPNLPCILVGPGTGIAPFRGFWQDRLHDIEIKGLQPAPMTLVFGCRCSQLDHLYRDEVLDAQQRGVFGQVLTAFSRDPGSPKTYVQDLLRTELAAEVHRVLCLEQGHMFVCGDVTMATSVLQTVQRILATEGGMELDEAGDVIGVLRDQQRYHEDIFGLTLRTQEVTSRIRTQSFSLQERQLRGAVPWSFDPPGPEIPGS
Turning to B3, the binding entry in assay [3] and in assay [4] was “binds” throughout.

B4: caveolin-1 (protein, UniProt P49817 1-178)
chain: MSGGKYVDSEGHLYTVPIREQGNIYKPNNKAMADEVTEKQVYDAHTKEIDLVNRDPKHLNDDVVKIDFEDVIAEPEGTHSFDGIWKASFTTFTVTKYWFYRLLSTIFGIPMALIWGIYFAILSFLHIWAVVPCIKSFLIEIQCISRVYSIYVHTFCDPLFEAIGKIFSNIRISTQKEI
For the molecule B4, the binding result in assay [1] and in assay [5] was “binds” in each case.

Values taken from article PMC11046792.
